# PubChem BioAssay AID2778 (National Center for Advancing Translational Sciences (NCATS), 2010)
# By UniProt entry, the sequences of proteins in these tests, tags left out.
# UniProt O00255, whole entry, looked up: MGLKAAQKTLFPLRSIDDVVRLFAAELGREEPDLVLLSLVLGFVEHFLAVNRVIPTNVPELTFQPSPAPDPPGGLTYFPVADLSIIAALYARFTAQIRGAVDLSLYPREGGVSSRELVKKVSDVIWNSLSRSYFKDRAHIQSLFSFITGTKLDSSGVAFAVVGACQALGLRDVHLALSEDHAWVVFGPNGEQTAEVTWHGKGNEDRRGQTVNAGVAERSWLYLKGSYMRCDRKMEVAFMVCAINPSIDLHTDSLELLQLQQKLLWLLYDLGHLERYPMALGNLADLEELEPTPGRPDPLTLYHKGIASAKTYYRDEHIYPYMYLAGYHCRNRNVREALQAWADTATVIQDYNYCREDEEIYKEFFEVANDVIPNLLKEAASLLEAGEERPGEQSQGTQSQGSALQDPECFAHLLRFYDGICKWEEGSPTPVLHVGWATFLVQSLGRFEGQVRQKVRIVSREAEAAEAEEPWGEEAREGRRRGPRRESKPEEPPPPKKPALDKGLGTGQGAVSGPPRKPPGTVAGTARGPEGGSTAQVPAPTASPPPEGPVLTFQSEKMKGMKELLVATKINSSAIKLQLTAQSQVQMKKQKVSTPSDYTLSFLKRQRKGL
# Inconclusive results, whose numbers are uncertain, are shown with a selection of clear calls. Where the call is inconclusive, the potency comes from a doubtful curve fit. Calls of active or inactive are those of the source. Calls follow the shape of the dose curve; as a rule, active = well fitted inhibition curve with a large enough effect; inconclusive = small, poorly fitted or top-dose-only effect, or effect the other way; inactive = flat fitted curve, though single readings scatter.
# Biological target: Menin (Homo sapiens) (UniProt O00255)
# Test: Confirmation of Inhibitors Targeting the Menin-MLL Interaction in MLL Related Leukemias: Confirmation in an HTRF (commercial TR-FRET) Assay using His-tagged menin and biotin-labeled MLL peptide
# Settings: His-menin / biotin-MLL peptide binding
# Procedure, shortened: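 Compounds were incubated 1 hr at ambient with a preformed His6-menin (200 nM)/biotinylated MLL-w.t. peptide (80 nM) complex in Tris pH 7.5 buffer; anti-His Eu-cryptate (3.5 nM) and SA-XL665 (10 nM) added, TR-FRET read after 1h.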
# Potency is read from the fitted curve at half-maximal effect.
row,SMILES,Potency
1,COc1ccc(Cn2nnnc2C(c2ccc3ncccc3c2)N2CCN(C3CCCCC3)CC2)cc1 (stereo not drawn),"inconclusive: 631 µM [inhibitor, partial curve]"
2,O=C(Nc1cc(Br)ccc1O)c1cc(-c2ccccc2)on1,"inconclusive: 63.1 µM [inhibitor, partial curve]"
3,N#Cc1ccc(Cl)cc1NC(=O)CNCc1cccs1,inactive
4,CCCc1nc2c(=O)[nH]c3ccccc3c2o1,"inconclusive: 631 µM [inhibitor, single point]"
5,Cc1cc2nc(-c3ccc(SCC(=O)Nc4ccc5c(c4)OCCO5)nc3)[nH]c2cc1C,"inconclusive: 501 µM [inhibitor, partial curve]"
6,Cc1sc2ncnc(NC3CCN(Cc4ccccc4)CC3)c2c1C,active: 126 µM
7,Cc1ccc(NS(=O)(=O)c2csc(C(N)=O)c2)cc1C,inactive
8,O=C1c2ccc(O)c(O)c2C(=O)c2c(O)ccc(O)c21,"inconclusive: 22.4 µM [activator, full curve]"
9,Cc1c(C(=O)OCC(=O)Nc2ccc(S(N)(=O)=O)cc2)oc2c1ccc1ccccc12,"inconclusive: 398 µM [inhibitor, partial curve]"
10,COc1ccc(CC(=O)Nc2ccc(-c3nnc(-c4ccccc4)o3)cc2)cc1,"inconclusive: 79.4 µM [inhibitor, partial curve]"
11,Oc1ccc2ccccc2c1N=Nc1nccs1,inactive
12,NS(=O)(=O)c1ccc(NC(=O)c2ccc(-c3ccccc3)cc2)cc1,active: 63.1 µM
13,CC1CCCCN1S(=O)(=O)c1ccc(C(=O)Nc2ccccc2-c2nc3ccccc3[nH]2)cc1 (stereo not drawn),inactive

# Looked up above:
# Value for `Oc1ccc2ccccc2c1N=Nc1nccs1` under Potency: inactive
# Value for `NS(=O)(=O)c1ccc(NC(=O)c2ccc(-c3ccccc3)cc2)cc1` under Potency: active: 63.1 µM
